In paper PMC12420808 one finds binding data, which are given here for 1 substance.

Sequences of proteins named here, by UniProt entry; tags and fusion partners are left off.
UniProt P09405: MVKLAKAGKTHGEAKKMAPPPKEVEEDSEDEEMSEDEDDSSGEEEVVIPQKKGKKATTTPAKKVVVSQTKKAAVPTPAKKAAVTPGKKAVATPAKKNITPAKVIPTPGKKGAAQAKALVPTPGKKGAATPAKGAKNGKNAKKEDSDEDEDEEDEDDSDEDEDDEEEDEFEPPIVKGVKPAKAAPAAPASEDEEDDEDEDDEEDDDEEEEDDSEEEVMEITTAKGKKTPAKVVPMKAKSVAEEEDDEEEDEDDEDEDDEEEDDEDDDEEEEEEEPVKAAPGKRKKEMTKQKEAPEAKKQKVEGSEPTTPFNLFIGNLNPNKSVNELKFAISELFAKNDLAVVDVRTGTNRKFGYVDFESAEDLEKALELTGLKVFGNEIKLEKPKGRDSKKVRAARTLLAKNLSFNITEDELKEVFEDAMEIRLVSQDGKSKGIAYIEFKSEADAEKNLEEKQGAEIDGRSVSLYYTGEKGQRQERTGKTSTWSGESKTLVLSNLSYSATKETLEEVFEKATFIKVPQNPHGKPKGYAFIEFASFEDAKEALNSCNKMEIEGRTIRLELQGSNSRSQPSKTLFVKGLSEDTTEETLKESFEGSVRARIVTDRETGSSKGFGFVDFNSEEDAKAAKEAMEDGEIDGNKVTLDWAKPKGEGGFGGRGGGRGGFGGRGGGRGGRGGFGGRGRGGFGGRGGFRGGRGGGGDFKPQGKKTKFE

The target of this test is T1, Kin17 (endogenous, mouse) (mouse (endogenous in neurospheres and cortex)) (UniProt Q8K339).
T1 sequence: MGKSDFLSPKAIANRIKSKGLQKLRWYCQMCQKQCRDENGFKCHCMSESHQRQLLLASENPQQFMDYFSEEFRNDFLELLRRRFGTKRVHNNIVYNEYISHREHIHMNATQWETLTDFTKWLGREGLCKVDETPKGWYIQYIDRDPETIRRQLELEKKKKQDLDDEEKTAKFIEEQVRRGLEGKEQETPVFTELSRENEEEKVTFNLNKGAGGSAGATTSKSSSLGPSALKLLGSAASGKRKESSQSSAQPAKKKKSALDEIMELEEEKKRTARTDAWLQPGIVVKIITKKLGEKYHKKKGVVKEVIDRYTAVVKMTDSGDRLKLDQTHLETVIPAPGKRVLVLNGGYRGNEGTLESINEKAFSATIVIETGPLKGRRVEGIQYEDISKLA
Put plainly: affinity purification with mass spectrometry; immunoprecipitation of Kin17 from cultured mouse neurospheres; SDS-PAGE, silver staining, bound proteins analysed by mass spectrometry.

These are yes or no findings as the source states them, for the method shown. Binding seen in cells or lysates may run through a third protein. A yes stands for co-enrichment or nearness to the bait. Other partners may have been found.

For the substance “Nucleolin (NCL) (endogenous, mouse) (from UniProt P09405 1-707)”, the binding entry is on record as “binds”.
